Test results taken from patent US5731285A (A. Menatini Industrie Farmaceutiche, priority 1992, dated 1998).

Experiment: general procedure: Boc solid-phase peptide synthesis; Boc-Leu-OCH2-PAM resin (Applied BioSystem, 0.8 meq/g); PyBop; symmetric anhydride (dicyclohexyl carbodiimide); HOBt
Conditions: cyclisation step, 210 nm

Substance: PEPTIDE1{M.D.W.F.[Dpr].L}$PEPTIDE1,PEPTIDE1,1:R1-6:R2|PEPTIDE1,PEPTIDE1,2:R3-5:R3$$$V2.0
- final HPLC purity: >99%

Some peptides are written in HELM: one residue between dots, names in brackets for other building blocks, links after the first $.
